This is an account of results in patent US12692532B2 (ETH ZURICH, priority 2019, dated 2026).

Series [1] can be described thus: general procedure: Fmoc solid-phase peptide synthesis; Rink amide ChemMatrix resin (~0.5 mmol/g); HATU / i-Pr2NEt. The following applies: whole synthesis, UV 214 nm.
Series [2] can be described thus: general procedure: Fmoc solid-phase peptide synthesis; Rink amide resin; HATU / i-Pr2NEt. The following applies: whole synthesis, UV 214 nm.

As for “1-[ProHypGly]3-AopProGly-[ProHypGly]3—NH2”, in series [1], the “final HPLC purity” value was greater than 97%.

Take 1-Ahx-[ProProGly]7—NH2: in series [1], the “final HPLC purity” value is given as greater than 99%.

MRA_3069-Ahx-(ChaR)3—NH2: the “final HPLC purity” value in series [2] is given as greater than 95%.

Consider PB-Ahx-(ChaR)3—NH2, for which the “final HPLC purity” value in series [2] is greater than 99%.
